{"source": "PubChem BioAssay AID686938 (Drosophila RNAi Screening Center, 2013)", "test": "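Fly genes required for calcium entry once internal stores are emptied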 (primary screen)", "cell system": "Drosophila S2R+ cells", "knock-down reagent": "long dsRNA against Drosophila genes, about 0.25 µg dsRNA per well, roughly 10,000 cells", "timing": "5 days of knock-down before the calcium assay", "conditions": "thapsigargin (SERCA pump blocker) to empty calcium stores; entry signal taken 4 min after adding it", "read-out": "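Per-well fluo-4 fluorescence in two replicates, unnormalised, measured in resting cells and 4 min after store depletion by the SERCA blocker thapsigargin; ratio of the two present in few wells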", "scale": "calcium entry signal: higher = stronger calcium signal after store depletion; resting calcium signal: higher = higher resting calcium signal", "units": "calcium entry signal in fluorescence units; resting calcium signal in fluorescence units", "rule for the call": "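Hit if the duplicate-averaged plate z-score for entry over resting signal is under −3; wells with weak total dye signal (Fmax z < −2) or more than 5 off-targets removed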", "meaning of the calls": "active = strongly reduced calcium entry; inactive = no strong reduction", "note": "In all, the deposit lists about 23,000 reagents; shown is an unselected part of those that have a named target and a result. Over the whole deposit, 75 (0.33%) are marked active. 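Raw plate signals without normalisation; calls rest on plate z-scores that were not deposited; ratio present for only 364 wells.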 The numbers tell different reagents against one gene apart. Not given: the dose of the treatment."}
{"predicted target":"CG10182","reagent":1,"calcium entry signal, replicate 1":4.11e7,"calcium entry signal, replicate 2":5.61e7,"resting calcium signal, replicate 1":1.76e7,"resting calcium signal, replicate 2":2.18e7,"activity call":"inactive"}
{"predicted target":"CG30036","reagent":1,"calcium entry signal, replicate 1":2.12e7,"calcium entry signal, replicate 2":2.79e7,"resting calcium signal, replicate 1":1.15e7,"resting calcium signal, replicate 2":1.33e7,"activity call":"inactive"}
{"predicted target":"CG7084","reagent":1,"calcium entry signal, replicate 1":3.02e7,"calcium entry signal, replicate 2":3.23e7,"resting calcium signal, replicate 1":1.43e7,"resting calcium signal, replicate 2":1.52e7,"activity call":"inactive"}
{"predicted target":"Lamtor1 (Late endosomal/lysosomal adaptor, MAPK and MTOR activator 1)","reagent":1,"calcium entry signal, replicate 1":3.37e7,"calcium entry signal, replicate 2":4.69e7,"resting calcium signal, replicate 1":1.70e7,"resting calcium signal, replicate 2":1.98e7,"activity call":"inactive"}
{"predicted target":"nAChRbeta3 (nicotinic Acetylcholine Receptor beta3)","reagent":1,"calcium entry signal, replicate 1":4.32e7,"resting calcium signal, replicate 1":1.75e7,"activity call":"inactive"}
{"predicted target":"ana2 (anastral spindle 2)","reagent":1,"calcium entry signal, replicate 1":4.29e7,"calcium entry signal, replicate 2":4.29e7,"resting calcium signal, replicate 1":1.84e7,"resting calcium signal, replicate 2":2.37e7,"activity call":"inactive"}

Continued, starting with the last 2 of the part before.
{"predicted target":"nAChRbeta3 (nicotinic Acetylcholine Receptor beta3)","reagent":1,"calcium entry signal, replicate 1":4.32e7,"resting calcium signal, replicate 1":1.75e7,"activity call":"inactive"}
{"predicted target":"ana2 (anastral spindle 2)","reagent":1,"calcium entry signal, replicate 1":4.29e7,"calcium entry signal, replicate 2":4.29e7,"resting calcium signal, replicate 1":1.84e7,"resting calcium signal, replicate 2":2.37e7,"activity call":"inactive"}
{"predicted target":"Gfat2 (Glutamine:fructose-6-phosphate aminotransferase 2)","reagent":1,"calcium entry signal, replicate 1":3.53e7,"calcium entry signal, replicate 2":4.64e7,"resting calcium signal, replicate 1":1.53e7,"resting calcium signal, replicate 2":1.95e7,"activity call":"inactive"}
{"predicted target":"lic (licorne)","reagent":1,"calcium entry signal, replicate 1":3.60e7,"calcium entry signal, replicate 2":3.67e7,"resting calcium signal, replicate 1":1.63e7,"resting calcium signal, replicate 2":1.82e7,"activity call":"inactive"}
{"predicted target":"CG8389","reagent":1,"calcium entry signal, replicate 1":3.40e7,"calcium entry signal, replicate 2":2.43e7,"resting calcium signal, replicate 1":1.59e7,"resting calcium signal, replicate 2":1.21e7,"activity call":"inactive"}
{"predicted target":"CG8389","reagent":2,"calcium entry signal, replicate 1":2.69e7,"calcium entry signal, replicate 2":4.03e7,"resting calcium signal, replicate 1":1.26e7,"resting calcium signal, replicate 2":1.71e7,"activity call":"inactive"}
{"predicted target":"Cnb (Centrobin)","reagent":1,"calcium entry signal, replicate 1":4.05e7,"calcium entry signal, replicate 2":3.82e7,"resting calcium signal, replicate 1":1.88e7,"resting calcium signal, replicate 2":1.95e7,"activity call":"inactive"}
{"predicted target":"CG9919","reagent":1,"calcium entry signal, replicate 1":5.29e7,"calcium entry signal, replicate 2":2.65e7,"resting calcium signal, replicate 1":2.48e7,"resting calcium signal, replicate 2":1.17e7,"activity call":"inactive"}
